# Assay results taken from paper PMC11293393.
# Protein sequences, listed by entry. Tags and fused reporters are not part of them.
# UniProt Q6PDQ2: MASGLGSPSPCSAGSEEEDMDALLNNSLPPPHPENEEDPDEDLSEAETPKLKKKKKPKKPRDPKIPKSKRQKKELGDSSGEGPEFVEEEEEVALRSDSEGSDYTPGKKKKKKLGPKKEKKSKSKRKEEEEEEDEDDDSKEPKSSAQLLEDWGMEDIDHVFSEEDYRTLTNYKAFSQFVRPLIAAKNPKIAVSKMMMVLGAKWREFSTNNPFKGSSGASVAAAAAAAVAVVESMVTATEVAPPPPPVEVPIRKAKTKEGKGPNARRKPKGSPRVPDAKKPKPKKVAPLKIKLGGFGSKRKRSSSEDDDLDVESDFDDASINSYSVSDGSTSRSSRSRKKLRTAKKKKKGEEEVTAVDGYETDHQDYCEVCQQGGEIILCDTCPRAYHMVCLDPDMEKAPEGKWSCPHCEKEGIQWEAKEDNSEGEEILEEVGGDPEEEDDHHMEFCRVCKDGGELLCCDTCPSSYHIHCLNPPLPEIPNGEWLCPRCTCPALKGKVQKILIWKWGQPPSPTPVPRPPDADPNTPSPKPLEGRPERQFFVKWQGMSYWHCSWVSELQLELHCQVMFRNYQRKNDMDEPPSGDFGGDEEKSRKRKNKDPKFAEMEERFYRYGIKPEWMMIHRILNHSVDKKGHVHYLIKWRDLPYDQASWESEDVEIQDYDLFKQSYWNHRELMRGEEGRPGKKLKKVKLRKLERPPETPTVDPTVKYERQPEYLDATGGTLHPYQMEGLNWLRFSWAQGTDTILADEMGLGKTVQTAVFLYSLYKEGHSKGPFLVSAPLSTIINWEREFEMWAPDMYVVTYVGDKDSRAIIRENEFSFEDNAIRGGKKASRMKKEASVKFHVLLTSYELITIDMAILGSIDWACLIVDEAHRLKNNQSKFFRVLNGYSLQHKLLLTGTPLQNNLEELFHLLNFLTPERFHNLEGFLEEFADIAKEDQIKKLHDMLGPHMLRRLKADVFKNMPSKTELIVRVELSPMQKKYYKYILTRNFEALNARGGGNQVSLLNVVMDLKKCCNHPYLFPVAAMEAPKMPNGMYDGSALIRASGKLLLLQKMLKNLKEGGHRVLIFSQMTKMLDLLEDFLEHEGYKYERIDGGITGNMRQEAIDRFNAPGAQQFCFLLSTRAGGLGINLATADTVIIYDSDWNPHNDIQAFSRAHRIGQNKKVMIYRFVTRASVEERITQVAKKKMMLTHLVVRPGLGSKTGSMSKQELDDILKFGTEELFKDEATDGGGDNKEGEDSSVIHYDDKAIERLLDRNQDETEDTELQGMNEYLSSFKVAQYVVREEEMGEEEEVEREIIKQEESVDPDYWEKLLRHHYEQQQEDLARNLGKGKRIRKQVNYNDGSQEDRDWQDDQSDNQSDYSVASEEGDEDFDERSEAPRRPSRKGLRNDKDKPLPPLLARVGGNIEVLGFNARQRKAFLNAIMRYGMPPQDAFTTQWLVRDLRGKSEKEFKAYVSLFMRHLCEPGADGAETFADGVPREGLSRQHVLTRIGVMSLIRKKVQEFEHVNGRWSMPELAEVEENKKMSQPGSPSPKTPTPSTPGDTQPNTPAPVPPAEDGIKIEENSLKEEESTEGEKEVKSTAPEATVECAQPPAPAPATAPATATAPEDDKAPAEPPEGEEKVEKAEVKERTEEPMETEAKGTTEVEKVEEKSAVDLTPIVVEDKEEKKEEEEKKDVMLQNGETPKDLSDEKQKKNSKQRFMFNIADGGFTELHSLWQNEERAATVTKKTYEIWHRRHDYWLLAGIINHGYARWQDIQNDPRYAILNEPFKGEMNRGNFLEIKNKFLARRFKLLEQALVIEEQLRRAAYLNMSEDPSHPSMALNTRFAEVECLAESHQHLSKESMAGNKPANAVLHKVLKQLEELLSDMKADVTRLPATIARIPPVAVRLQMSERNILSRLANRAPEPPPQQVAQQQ
# UniProt P83917: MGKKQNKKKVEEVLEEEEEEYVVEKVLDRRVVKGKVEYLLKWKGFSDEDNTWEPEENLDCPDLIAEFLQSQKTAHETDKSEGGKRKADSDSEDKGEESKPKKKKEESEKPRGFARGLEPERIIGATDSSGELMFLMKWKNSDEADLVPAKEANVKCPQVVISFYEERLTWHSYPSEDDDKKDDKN
# No constants are given. Whether binding was seen depends on the method and setting. Binding seen in cells or lysates may run through a third protein. Some binding calls cover weakened binding; strength is not graded here. Where a sequence is shown, tags or fusion partners need not be part of it.
# Molecular target: T1, ADNP2^Avi-3xFLAG (mouse (endogenous in mouse ES cells)) (UniProt Q8CHC8)
# T1 sequence: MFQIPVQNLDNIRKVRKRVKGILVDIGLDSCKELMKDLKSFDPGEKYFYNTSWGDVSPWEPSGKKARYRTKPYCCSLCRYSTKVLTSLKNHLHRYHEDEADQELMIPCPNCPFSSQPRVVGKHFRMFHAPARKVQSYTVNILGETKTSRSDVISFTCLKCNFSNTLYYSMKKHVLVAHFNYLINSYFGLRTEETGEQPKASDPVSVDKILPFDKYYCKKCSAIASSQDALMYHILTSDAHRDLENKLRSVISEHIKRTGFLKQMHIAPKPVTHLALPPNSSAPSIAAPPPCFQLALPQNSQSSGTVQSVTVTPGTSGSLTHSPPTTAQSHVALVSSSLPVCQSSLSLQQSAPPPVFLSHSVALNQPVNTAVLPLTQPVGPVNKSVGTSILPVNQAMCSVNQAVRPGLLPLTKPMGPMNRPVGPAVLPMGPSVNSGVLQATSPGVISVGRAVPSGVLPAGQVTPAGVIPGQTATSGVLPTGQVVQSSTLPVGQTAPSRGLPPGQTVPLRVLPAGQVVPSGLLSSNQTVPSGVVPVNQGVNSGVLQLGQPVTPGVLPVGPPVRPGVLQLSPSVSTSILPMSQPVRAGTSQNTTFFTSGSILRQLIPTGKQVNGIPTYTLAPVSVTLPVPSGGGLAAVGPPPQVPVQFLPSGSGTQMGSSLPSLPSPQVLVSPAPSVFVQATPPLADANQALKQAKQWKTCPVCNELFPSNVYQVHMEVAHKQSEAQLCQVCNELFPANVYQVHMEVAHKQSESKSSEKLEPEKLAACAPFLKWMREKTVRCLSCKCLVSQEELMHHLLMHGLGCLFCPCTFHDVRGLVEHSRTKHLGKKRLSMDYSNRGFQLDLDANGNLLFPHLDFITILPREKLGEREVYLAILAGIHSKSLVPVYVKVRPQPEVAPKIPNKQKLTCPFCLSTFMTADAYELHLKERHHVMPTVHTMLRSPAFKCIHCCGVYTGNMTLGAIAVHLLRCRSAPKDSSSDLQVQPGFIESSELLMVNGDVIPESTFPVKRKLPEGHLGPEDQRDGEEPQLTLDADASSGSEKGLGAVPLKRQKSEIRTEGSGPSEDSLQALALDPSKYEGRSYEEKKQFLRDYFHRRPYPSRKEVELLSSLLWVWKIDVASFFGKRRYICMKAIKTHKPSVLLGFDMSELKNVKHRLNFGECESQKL
# Test: co-IP; pull-down of WT or PxVxL-mutated ADNP2^Avi-3xFLAG from mouse ES cell lysate (NP-40 lysis buffer, 150 mM NaCl, benzonase); beads and detection are in Supplemental Fig. S4B, not shown
row,binding,Substance
1,binds,CHD4 (from UniProt Q6PDQ2 1-1915)
2,binds,HP1β (from UniProt P83917 1-185)
